The supplement of paper PMC3334620
Over roughly 33,000 sequences, “E-score (-0.5 to 0.5)” has its median near -0.0059; the highest 2% begin near 0.26. Some of the results follow.

molecular target: T1, Cin5 (UniProt P40917); experiment: PBM E-score (8-mer binding enrichment) (E-score (-0.5 to 0.5)); higher = stronger / more preferred TF binding; details: protein concentration: 100 nM; construct: GST-full length
T1 sequence: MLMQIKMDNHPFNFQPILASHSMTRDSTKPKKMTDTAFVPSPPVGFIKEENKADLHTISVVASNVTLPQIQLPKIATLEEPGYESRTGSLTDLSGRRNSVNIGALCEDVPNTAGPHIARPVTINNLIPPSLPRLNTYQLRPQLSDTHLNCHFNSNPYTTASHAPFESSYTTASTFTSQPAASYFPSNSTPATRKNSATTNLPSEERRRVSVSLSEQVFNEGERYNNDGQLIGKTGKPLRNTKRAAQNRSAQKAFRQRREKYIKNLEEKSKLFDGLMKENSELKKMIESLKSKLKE
In short: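 Detection of bound protein used fluorescent anti-GST, with scans normalised by masliner. The proteins were GST-tagged yeast transcription factors applied at about 100-200 nM to universal all-10-mer Agilent arrays made double-stranded by primer extension. Each ungapped eight-base word, pooled with its reverse complement, was scored with an E-score from the Universal PBM Analysis Suite.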

Row | Sequence | PBM E-score
1 | CCACTACA | 0.109
2 | AGGGAGAA | -0.127
3 | CAACCAAA | 0.0549
4 | AACTCTAC | -0.124
5 | ACAAGTAG | -0.0228
6 | AGATAAGC | 0.128
7 | CGTAAGTA | 0.19
8 | CCCAAAGG | -0.278
9 | CTCACATC | 0.0895
10 | AGTAAGCC | 0.216
11 | CCAATTCG | 0.0162
12 | ATTTCGCA | 0.229
13 | AAGGTCTG | -0.105
14 | ATCAAAAG | 0.0759
15 | AAGACGCC | -0.064
16 | CTAATATA | 0.0911
17 | AGGCCAGG | -0.0853
18 | GCTTTACC | 0.0625
19 | CCTCAAAA | -0.0493
20 | CTGTCAAG | -0.0953
21 | GGAACCCC | -0.102
22 | CTGACAAG | 0.0456
23 | GGCCTACC | 0.00494
24 | GCCGTGCA | -0.164
25 | TAACTGGA | -0.00372

Row | Sequence | PBM E-score
26 | CCTCGTAC | -0.0306
27 | AACTTTTA | 0.172
28 | CCTAGGTC | -0.147
29 | ATGAGTAC | 0.102
30 | CCAGGCCC | -0.195
31 | ATTGCCCC | 0.114
32 | CCTACTAC | -0.0792
33 | ACATCACA | 0.13
34 | GCCGATTA | 0.128
35 | GCGTCAGA | -0.00632
36 | AACTACTA | 0.236
37 | CAGAGTGG | -0.158
38 | AGAAACAG | 0.00274
39 | ACGTAGTG | 0.0483
40 | AGACGCCT | -0.255
41 | GATTACCA | 0.218
42 | AAAGTAGT | 0.0884
43 | CATTAGGG | -0.117
44 | TCAATCGA | 0.142
45 | ATCCCAAA | 0.0715
46 | GTATCGCA | -0.0983
47 | GAATCACC | 0.0176
48 | CGGGACCG | -0.148
49 | ACTAGACT | -0.257
50 | AGTGTCAA | -0.0591

Individual results from the entries so far.
PBM E-score, GCTTTACC reads 0.0625
PBM E-score, AGATAAGC reads 0.128
PBM E-score, ACTAGACT reads -0.257
PBM E-score, AGACGCCT reads -0.255

(cont.)

Row | Sequence | PBM E-score
51 | ACGGTGCC | -0.184
52 | ACAAAGTC | -0.0487
53 | CAGATATC | 0.128
54 | CCGCTGAC | 0.137
55 | AGTGAAAA | 0.126
56 | ACCTAGGT | -0.212
57 | CCCGCACG | -0.0652
58 | CAGGTTTA | 0.109
59 | TAAGACGA | 0.0211
60 | ATGAGAAA | 0.11
61 | AGCGATGA | 0.111
62 | AATAAGCC | 0.107
63 | CGCAGTTA | 0.109
64 | ACTGGTCT | -0.136
65 | ATGAGCAT | 0.0863
66 | CCGCCTGA | 0.00219
67 | AACCGACC | 0.0873
68 | CAACGCAG | -0.128
69 | ATGCTGAG | -0.0252
70 | GAATAACC | 0.0485
71 | GCGCACCC | -0.102
72 | GCCTGAAA | 0.0109
73 | ACACACGG | -0.205
74 | CGTCGGAG | -0.105
75 | GGGCGCCC | -0.0661

Row | Sequence | PBM E-score
76 | CACGTCTC | -0.189
77 | ATAAACCG | 0.121
78 | CTAATGCA | 0.174
79 | GAACGTGA | 0.0409
80 | GCCTCGTA | 0.00677
81 | ACCCTTTC | -0.161
82 | ACAGACGC | -0.108
83 | CACCTGCA | -0.0793
84 | GTAGCCGA | -0.171
85 | GACGCTCC | -0.148
86 | CATGCTAA | 0.0262
87 | ATTGTAGC | 0.0104
88 | CATATCAC | 0.136
89 | AGGTATCA | -0.0317
90 | ATCTATCC | -0.00665
91 | CCCACTCA | -0.0571
92 | CCTAGTTA | -0.0425
93 | CATCGTAG | -0.196
94 | ACGCTTAC | 0.269
95 | GGACCAAA | 0.0582
96 | ACGAGTCC | -0.0992
97 | GGCCATAC | 0.056
98 | ACTAAGAA | 0.177
99 | AGGAACAA | -0.0886
100 | TACATTGA | 0.118

Row | Sequence | PBM E-score
101 | AGTTCGGC | -0.0604
102 | TATGAGGA | -0.00288
103 | ACGTTACG | -0.0359
104 | TATCCCAA | 0.0298
105 | GTAACCCA | 0.234
106 | AGACTTAG | -0.233
107 | ACGACACG | 0.0762
108 | GCACAAGA | 0.0328
109 | TCCCGAGA | -0.116
110 | CAAGGTCC | -0.159
111 | AGCTTTCG | -0.238
112 | ACCAACGA | -0.055
113 | GTCACCAC | -0.1
114 | CTTTGGAC | -0.0618
115 | CAAGCCTA | -0.16
116 | ATTCTCGG | 0.175
117 | CACTAGCG | -0.108
118 | CCAGGGTA | -0.144
119 | GCGGGCTA | -0.0859
120 | GATTACTA | 0.387
121 | AAACCCCG | 0.0507
122 | ACGAGCAT | -0.00763
123 | CCGTACTA | 0.159
124 | TCGACGCA | -0.0216
125 | CATTAAGC | 0.0535

Row | Sequence | PBM E-score
126 | CTGTCATC | -0.0114
127 | GTATATAC | 0.104
128 | AAACTCCG | -0.0418
129 | ACCTTTAA | -0.0476
130 | AAATGAGG | -0.0737
131 | ATGTCGAC | 0.198
132 | GCCTCGCC | -0.232
133 | GTCATGAA | 0.115
134 | AATGTGAT | 0.201
135 | CTCGTCCA | -0.0332
136 | AAGATCGA | 0.13
137 | AGGGTGTA | -0.0304
138 | GATTCACC | -0.0833
139 | GTCGACCA | -0.0947
140 | AGCGCACC | -0.0753
141 | ACGGTCGC | -0.178
142 | AGGCTACT | -0.0774
143 | AAAGGACC | -0.118
144 | CTCTGAGC | -0.2
145 | AACACTCG | 0.144
146 | GGTCCACA | -0.155
147 | CTGGCCCC | -0.17
148 | CTACTGGC | -0.128
149 | CTCCAGCA | -0.141
150 | ATGACCAA | 0.0618

Row | Sequence | PBM E-score
151 | AATAGCGC | 0.156
152 | AGTTAAAA | 0.207
153 | GCCCCTAC | -0.0805
154 | GGATAGCC | -0.0211
155 | ACAAGGTA | 0.0342
156 | CCGAACAC | 0.0281
157 | GTAGTCAA | 0.0357
158 | AAGTGTTC | 0.119
159 | CGGGAACC | -0.199
160 | AAGTATGA | 0.192
161 | AAGAGAAT | 0.261
162 | ATTGCTAC | 0.00128
163 | TCGTAAGA | -0.00999
164 | GTGTAACA | 0.00347
165 | GGCTTCAA | -0.199
166 | CCGTAGTA | -0.061
167 | ATACTGAT | 0.283
168 | GCTGAACA | 0.0703
169 | CCTCGAAG | 0.0156
170 | ATAAAGTC | 0.113
171 | AGGTTATA | -0.0535
172 | AGAAGGCT | -0.196

Shown tab-delimited: entries from further up
Row	Sequence	PBM E-score
154	GGATAGCC	-0.0211
159	CGGGAACC	-0.199
160	AAGTATGA	0.192
167	ATACTGAT	0.283
